# PubChem BioAssay AID652243, Drosophila RNAi Screening Center | 2013
# Screen: 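Fly genes required for human androgen receptor driven transcription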 (primary screen)
# Cells: Drosophila S2R+ cells
# Reagent: long dsRNA against Drosophila genes
# Time to read-out: 72 h (48 h, then 24 h hormone)
# Treatment: synthetic androgen R1881 at 10 nM for 24 h
# Detection: 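Per-well raw luminescence of the androgen-driven firefly reporter and of the Renilla control, two replicates each, without normalisation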
# Direction: firefly reporter light: higher = more light from androgen-responsive reporter; Renilla control light: higher = more constitutive control signal (cell number, transfection)
# Hit rule: 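Hit when the log firefly-to-Renilla ratio dropped or increased by a fixed fold versus the mean of GFP or LacZ controls across duplicate plates; lowering cut given as 1.5 and as 3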
# Meaning of the calls: active = hit: reporter lowered or raised; inactive = no hit
# The deposit covers about 24,000 reagents; below is a random part of those that have a named target and a result. In the full data, 246 (1%) were called active. 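Plates not normalised; calls are printed but the firefly/Renilla ratio behind them is not deposited; fold cut for lowering reported inconsistently.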 Raw values are not corrected between plates. Reagents against one gene are numbered here. Names joined by + are all predicted targets of the reagent. The record does not give: the amount of reagent.
target gene,reagent,"firefly reporter light, replicate 1","firefly reporter light, replicate 2","Renilla control light, replicate 1","Renilla control light, replicate 2",outcome
"ATPsynepsilonL (ATP synthase, epsilon subunit-like)",1,1.75e5,1.38e5,2.79e6,3.06e6,inactive
CG12522,1,33395,88236,1.24e5,1.38e5,inactive
CG12522,2,4.49e5,6.10e5,9.46e5,8.27e5,inactive
Zmynd10 (Zinc finger MYND-type containing 10),1,1.67e5,1.34e5,1.65e6,1.52e6,inactive
Zmynd10 (Zinc finger MYND-type containing 10),2,3.47e5,4.42e5,1.38e6,1.84e6,active
Zmynd10 (Zinc finger MYND-type containing 10),3,6.96e5,5.65e5,2.31e6,2.25e6,inactive
CG1288,1,54237,93196,1.26e6,1.36e6,inactive
CG1288,2,7.81e5,7.83e5,1.09e6,1.17e6,inactive
Ir52d (Ionotropic receptor 52d),1,47456,93863,8.92e5,8.92e5,inactive
mtDNA-helicase (mitochondrial DNA helicase),1,98562,1.19e5,8.08e5,8.63e5,inactive
Or9a (Odorant receptor 9a),1,4.63e5,3.60e5,3.43e6,3.61e6,inactive
Or9a (Odorant receptor 9a),2,3.40e5,5.42e5,7.96e5,1.15e6,inactive
Mcm7 (Minichromosome maintenance 7),1,7.40e5,8.66e5,1.10e6,1.14e6,inactive
Mcm7 (Minichromosome maintenance 7),2,3.88e5,1.59e5,3.80e5,3.56e5,inactive
CG17196,1,2.28e5,2.12e5,2.70e6,2.45e6,inactive
CG33337,1,4.94e5,4.55e5,3.01e6,2.14e6,inactive
CG33337,2,3.80e5,2.67e5,1.12e6,5.93e5,inactive
Gr8a (Gustatory receptor 8a),1,3.47e5,4.30e5,2.18e6,2.68e6,inactive
CG1077,1,4.51e5,6.02e5,1.26e6,1.47e6,inactive
CG1077,2,2.49e5,2.56e5,7.21e5,6.51e5,inactive
CG10405,1,1.66e5,1.44e5,2.41e6,2.50e6,inactive
CG6048,1,3.16e5,6.06e5,2.83e6,2.74e6,inactive
CG6048,2,6.23e5,6.58e5,1.07e6,1.46e6,inactive
CG41561,1,9.06e5,7.38e5,2.09e6,2.38e6,inactive
ghi (ghiberti),1,3.83e5,5.43e5,9.83e5,2.13e6,inactive
CG18284,1,7.25e5,1.04e6,2.77e6,2.77e6,inactive
CG18284,2,5.33e5,4.69e5,8.11e5,6.94e5,inactive
CG18284,3,8.27e5,9.38e5,9.66e5,1.05e6,inactive
vnd (ventral nervous system defective),1,2.02e5,2.49e5,2.19e6,1.84e6,inactive
vnd (ventral nervous system defective),2,4.52e5,7.65e5,1.46e6,2.39e6,inactive
vnd (ventral nervous system defective),3,3.44e5,2.47e5,6.52e5,3.37e5,inactive
CG34115,1,5.52e5,5.48e5,1.79e6,1.30e6,inactive
gny (garnysstan),1,8.49e5,9.00e5,1.25e6,2.07e6,inactive
p47,1,9.08e5,7.84e5,2.39e6,2.58e6,inactive
lncRNA:CR33218 (long non-coding RNA:CR33218),1,4.52e5,8.02e5,1.14e6,1.56e6,inactive
Cyp316a1 (Cytochrome P450 316a1),1,85954,1.62e5,1.18e6,1.90e6,inactive
Cyp316a1 (Cytochrome P450 316a1),2,6.64e5,3.40e5,1.06e6,1.16e6,inactive
CG17078,1,73256,98687,5.27e5,6.41e5,inactive
CG17078,2,8.02e5,9.53e5,7.59e5,5.10e5,inactive
CG6712,1,4.49e5,5.41e5,2.12e6,1.42e6,inactive
CG6712,2,6.01e5,6.05e5,2.24e6,2.03e6,inactive
CG7739,1,78145,62814,1.31e6,7.26e5,inactive
sinah (sina homologue),1,3.86e5,3.04e5,3.32e6,2.92e6,inactive
sinah (sina homologue),2,7.32e5,6.00e5,2.55e6,1.85e6,inactive
tre-3 (retired record),1,8.99e5,5.37e5,2.28e6,1.90e6,inactive
Hsp83 (Heat shock protein 83),1,2.73e5,2.82e5,2.26e6,3.10e6,inactive
Hsp83 (Heat shock protein 83),2,4.46e5,3.26e5,4.12e5,3.80e5,inactive
Reck (Reversion-inducing-cysteine-rich protein with kazal motifs),1,8.15e5,4.00e5,1.72e6,1.54e6,inactive
Reck (Reversion-inducing-cysteine-rich protein with kazal motifs),2,2.18e5,1.98e5,2.21e6,1.90e6,inactive
CG1090,1,64821,86252,6.83e5,5.87e5,inactive
CG1090,2,1.11e6,9.51e5,2.30e6,2.51e6,inactive
CG42502 + CG10570,1,8.76e5,7.28e5,2.27e6,2.23e6,inactive
BaraB (Baramicin B),1,4.02e5,3.41e5,2.57e6,2.42e6,inactive
SP1173,1,1.14e6,1.04e6,8.19e5,1.30e6,inactive
Jupiter,1,59612,86207,5.29e5,6.09e5,inactive
Jupiter,2,1.51e5,98760,2.55e6,2.42e6,inactive
Jupiter,3,96870,91755,2.40e6,1.96e6,inactive
Rh5 (Rhodopsin 5),1,1.12e6,5.16e5,1.38e6,1.07e6,inactive
Rh5 (Rhodopsin 5),2,7.41e5,3.45e5,2.29e6,7.22e5,inactive

Ordered by “Renilla control light, replicate 2” (low to high): 9 of the entries above
target gene,reagent,"firefly reporter light, replicate 1","firefly reporter light, replicate 2","Renilla control light, replicate 1","Renilla control light, replicate 2",outcome
Hsp83 (Heat shock protein 83),2,4.46e5,3.26e5,4.12e5,3.80e5,inactive
CG7739,1,78145,62814,1.31e6,7.26e5,inactive
Reck (Reversion-inducing-cysteine-rich protein with kazal motifs),1,8.15e5,4.00e5,1.72e6,1.54e6,inactive
sinah (sina homologue),2,7.32e5,6.00e5,2.55e6,1.85e6,inactive
tre-3 (retired record),1,8.99e5,5.37e5,2.28e6,1.90e6,inactive
Reck (Reversion-inducing-cysteine-rich protein with kazal motifs),2,2.18e5,1.98e5,2.21e6,1.90e6,inactive
CG6712,2,6.01e5,6.05e5,2.24e6,2.03e6,inactive
sinah (sina homologue),1,3.86e5,3.04e5,3.32e6,2.92e6,inactive
Hsp83 (Heat shock protein 83),1,2.73e5,2.82e5,2.26e6,3.10e6,inactive
